{"source": "PubChem BioAssay AID504467", "about": "(National Center for Advancing Translational Sciences (NCATS), 2011)", "note": "Out of some 330,000 compounds screened, about 7,700 (2.3%) were called active. This list was built around the results that the source calls inconclusive (neither active nor inactive); the mix of calls is not that of the screen. Calls follow the shape of the dose curve; as a rule, active = well fitted inhibition curve with a large enough effect; inconclusive = small, poorly fitted or top-dose-only effect, or effect the other way; inactive = flat fitted curve, though single readings scatter. Where the call is inconclusive, the potency comes from a doubtful curve fit. % is scaled to controls: 0 for no effect and ±100 for the full control effect; potency is read from the fitted curve at half-maximal effect.", "data": [{"assay": "qHTS screen for small molecules that inhibit ELG1-dependent DNA repair in human embryonic kidney (HEK293T) cells expressing luciferase-tagged ELG1; also: nearly all actives have a fitted effect of over 55% in size", "conditions": "HEK293T ELG1-luciferase reporter, luminescence, 16 h, DNA damage induced by 5-fluorouridine; activity change, negative = inhibition: at 46.1 µM (top of the series)", "summary_of_the_method": "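Cells (2,000 per well) received 5-fluorouridine plus test compound or DMSO and were incubated 16 hr at 37 °C, 5% CO2. Luciferase activity was read by luminescence 30 min after ONE-Glo addition; signal suppression marked inhibition of damage-induced ELG1 function.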", "values": [{"compound": "COc1ccc(NC(=S)NC(=NS(=O)(=O)c2ccc(Cl)cc2)c2ccccc2)cc1", "Potency": "inconclusive: 20.6 µM [activator, single point]"}, {"compound": "C/C(=N\\Nc1ccc(F)cc1)c1ccc(N2CCOCC2)c(F)c1", "activity change, negative = inhibition": "inactive: 2.03%"}, {"compound": "Cc1ccc(NNC(=O)CCc2ccccc2)c(C)c1", "Potency": "inconclusive: 20.6 µM [inhibitor, single point]"}, {"compound": "Cc1noc(C)c1CSCC(=O)Nc1cc(C(F)(F)F)ccc1N1CCCCC1", "Potency": "inconclusive: 7.3 µM [inhibitor, single point]"}, {"compound": "Cc1ccc(S(=O)(=O)N(C)c2ccc(N)cc2)cc1", "activity change, negative = inhibition": "inactive: 6.96%"}, {"compound": "O=C(c1cccc(C(F)(F)F)c1)C1CCCN(C(=O)CN2CCCC2=O)C1", "note": "(configuration not stated)", "Potency": "inconclusive: 10.3 µM [activator, partial curve]"}, {"compound": "CC1CCN(C(=O)CSc2nnc3c(n2)[nH]c2ccccc23)CC1", "activity change, negative = inhibition": "inactive: -19%"}, {"compound": "O=C1CN(S(=O)(=O)c2cc(Br)ccc2Br)CCN1", "Potency": "inconclusive: 13 µM [activator, partial curve]"}, {"compound": "CC(=O)N1N=C(c2cccc([N+](=O)[O-])c2)OC1c1ccc(Br)cc1", "note": "(configuration not stated)", "activity change, negative = inhibition": "inactive: 15.1%"}, {"compound": "O=C(Nc1ccc(N2CCOCC2)c(S(=O)(=O)Nc2ccc(Cl)cc2)c1)c1ccc(=O)[nH]n1", "activity change, negative = inhibition": "inactive: -12.4%"}, {"compound": "O=C1NCCN(Cc2cccc(Oc3ccccc3)c2)C1CC(=O)N1CCCO1", "note": "(configuration not stated)", "activity change, negative = inhibition": "inactive: -11%"}, {"compound": "Clc1ccc(Cn2nnc3ccccc32)cc1", "activity change, negative = inhibition": "inactive: 1.55%"}, {"compound": "CN(C1=NC(=O)CS1)c1ccc(O)cc1", "Potency": "inconclusive: 29.1 µM [activator, single point]"}, {"compound": "COc1ccc2occ(C(=O)c3cccs3)c2c1", "Potency": "inconclusive: 9.2 µM [activator, partial curve]"}, {"compound": "CSc1nc(-c2ccccc2)nc(NC(=O)c2ccccc2)c1C(C)=O", "Potency": "inconclusive: 18.3 µM [inhibitor, single point]"}, {"compound": "Cc1ccc(Nc2nc(=O)[nH]nc2C)cc1", "activity change, negative = inhibition": "inactive: -3.2%"}, {"compound": "COc1c(/C=N/NC(=O)[C@H]2C[C@@H]2c2ccccc2)c(CCN(C)C(C)=O)cc2c1OCO2", "Potency": "active: 13 µM"}, {"compound": "CS/C(Nc1cc(Cl)ccc1Cl)=C(/C#N)C(=O)c1ccco1", "Potency": "inconclusive: 5.17 µM [activator, partial curve]"}, {"compound": "c1ccc2c(N3CCOCC3)nc(-c3ccncc3)nc2c1", "Potency": "active: 6.51 µM"}, {"compound": "O=C(NC(=S)Nc1ccc(Cc2ccncc2)cc1)c1ccc(F)cc1", "Potency": "inconclusive: 16.4 µM [inhibitor, single point]"}, {"compound": "CCCc1ccc(C(C)NC(=S)NCc2ccc(F)cc2)cc1", "note": "(configuration not stated)", "Potency": "inconclusive: 25.9 µM [activator, partial curve, poor fit]"}, {"compound": "COc1ccc(-c2nsc(SCC(=O)Nc3ccc4c(c3)OCO4)n2)cc1", "Potency": "inconclusive: 20.6 µM [activator, partial curve]"}, {"compound": "CC1=NN(C(C#N)c2ccccc2)C(c2ccccc2)C1", "note": "(configuration not stated)", "Potency": "inconclusive: 1.16 µM [inhibitor, single point]"}, {"compound": "CCOc1ccc(S(=O)(=O)NCCC(=O)OCC(=O)N2CC(=O)Nc3ccccc32)cc1", "activity change, negative = inhibition": "inactive: 3.16%"}, {"compound": "CC(=O)Nc1cccc(NC(=O)c2cccc(-c3ccc(O)cc3)c2)c1", "Potency": "inconclusive: 23.1 µM [activator, partial curve, poor fit]"}, {"compound": "NC(=O)CC[C@@H]1NC(=O)[C@@H]2CCCN2C(=O)c2cc([N+](=O)[O-])cc(I)c2NCCC[C@@H](C(N)=O)NC1=O", "activity change, negative = inhibition": "inactive: 9.14%"}, {"compound": "S=C(NCc1ccccc1)Nc1ccc2ccccc2c1", "Potency": "inconclusive: 14.6 µM [activator, partial curve]"}, {"compound": "CC(=O)N1CCN(S(=O)(=O)c2cccc(C(=O)NC3CC3)c2)CC1", "Potency": "inconclusive: 29.1 µM [activator, single point]"}, {"compound": "CC(C)(C)OC(=O)NCCCCCNC(=O)c1nc[nH]c1C(=O)NCc1ccc(CNC(=O)OC(C)(C)C)cc1", "Potency": "active: 6.51 µM"}, {"compound": "Cc1onc(C(=O)N2CCN(C(c3ccccc3)c3ccccc3)CC2)c1[N+](=O)[O-]", "Potency": "inconclusive: 2.59 µM [inhibitor, partial curve, poor fit]"}, {"compound": "CCCCCNC(=O)c1ccc2c(=O)n(CCCN3CCCC3=O)c(=S)[nH]c2c1", "Potency": "inconclusive: 29.1 µM [inhibitor, single point]"}, {"compound": "CC(=O)Oc1ccc2c(=O)oc(-c3ccccc3C)nc2c1", "activity change, negative = inhibition": "inactive: 5.39%"}, {"compound": "CCOC(=O)C1CCN(S(=O)(=O)c2c(C)noc2C)CC1", "activity change, negative = inhibition": "inactive: 15.1%"}, {"compound": "Cc1ccc(S(=O)(=O)CCC(=O)c2cccc([N+](=O)[O-])c2)cc1", "Potency": "inconclusive: 20.6 µM [activator, partial curve, poor fit]"}, {"compound": "CCN1C(=O)c2cccc3c(S(=O)(=O)NCC4CCCO4)ccc1c23", "note": "(configuration not stated)", "Potency": "inconclusive: 9.2 µM [activator, partial curve]"}, {"compound": "CCCCCCSc1ccc([C@H]2N[C@@](C)(C(=O)OC)[C@H]3C(=O)N(C)C(=O)[C@@H]23)cc1", "Potency": "inconclusive: 2.82 µM [inhibitor, partial curve, poor fit]"}, {"compound": "O=C(O)CC(NC(=O)OCc1ccccc1)c1ccc(Br)cc1", "note": "(configuration not stated)", "activity change, negative = inhibition": "inactive: 3.05%"}, {"compound": "COCCNC(=O)C(c1ccc(C)o1)N(C(=O)c1snc(C(N)=O)c1N)c1ccc(C)c(C)c1", "note": "(configuration not stated)", "Potency": "inconclusive: 13 µM [activator, partial curve, poor fit]"}, {"compound": "O=[N+]([O-])c1cccc(/C=N/Nc2nc(N3CCOCC3)nc(N3CCOCC3)n2)c1", "Potency": "inconclusive: 25.9 µM [inhibitor, partial curve, poor fit]"}, {"compound": "Cc1ccnc(N2C(=O)c3ccccc3C2Nc2ccc3c(c2)OCCO3)c1", "note": "(configuration not stated)", "Potency": "inconclusive: 23.1 µM [activator, partial curve]"}, {"compound": "Cc1cc(=O)c2ccccc2[nH]1", "activity change, negative = inhibition": "inactive: -2.43%"}, {"compound": "COc1cccc(C(=O)NOCc2ccc(C)cc2)c1OC", "Potency": "inconclusive: 20.6 µM [activator, single point]"}, {"compound": "O=C(NNC1=NCCC1)C1CC1", "activity change, negative = inhibition": "inactive: -0.327%"}, {"compound": "CNC(=O)c1c(NC(=O)c2ccc(S(=O)(=O)N3CCCc4ccccc43)cc2)sc2c1CCN(C)C2", "Potency": "inconclusive: 4.11 µM [inhibitor, full curve]"}, {"compound": "O=C(O)C1SCCN1S(=O)(=O)c1ccc(N=NN2CCOCC2)cc1", "note": "(configuration not stated)", "activity change, negative = inhibition": "inactive: -19.9%"}, {"compound": "CC(=O)Nc1ccc(Oc2cc(C#N)c(C#N)cc2N2CCCCCC2)cc1", "Potency": "inconclusive: 29.1 µM [inhibitor, single point]"}, {"compound": "O=C(O)c1c(-c2ccc(Cl)cc2)cn2ccccc12", "Potency": "inconclusive: 6.51 µM [activator, partial curve]"}, {"compound": "CCc1nnc(NC(=O)c2cccnc2)s1", "Potency": "inconclusive: 20.6 µM [activator, partial curve, poor fit]"}, {"compound": "CC1CCN(C(=O)CSc2nc3cccnc3n2C)CC1", "Potency": "inconclusive: 1.3 µM [inhibitor, single point]"}, {"compound": "COc1ccc(CN(C)c2nc(-c3cccnc3)nc3ccccc23)cc1OC", "Potency": "inconclusive: 6.51 µM [inhibitor, single point]"}, {"compound": "Nc1c(-c2cccc([N+](=O)[O-])c2)nc2ccccn12", "Potency": "inconclusive: 16.4 µM [activator, partial curve]"}, {"compound": "CN(Cc1ccccc1)S(=O)(=O)c1ccc(NC(=S)NC(=O)C(C)(C)C)cc1", "Potency": "inconclusive: 25.9 µM [inhibitor, partial curve, poor fit]"}, {"compound": "N#CC1=C(N)C(C#N)(C#N)[C@H](c2cccnc2)[C@H]2CN(C(=O)OCc3ccccc3)CC=C12", "Potency": "inconclusive: 32.6 µM [inhibitor, single point]"}, {"compound": "CCOC(=O)C1C(=O)C=C(c2ccc([N+](=O)[O-])cc2)CC1c1ccccc1", "note": "(configuration not stated)", "Potency": "inconclusive: 23.1 µM [inhibitor, single point]"}, {"compound": "COC(=O)c1ccccc1NC(=O)Cn1cc(Br)cn1", "Potency": "inconclusive: 25.9 µM [activator, partial curve, poor fit]"}, {"compound": "Cc1ccc(C(=O)N(CC(C)C)c2c(N)n(Cc3ccccc3)c(=O)[nH]c2=O)o1", "activity change, negative = inhibition": "inactive: 13.7%"}, {"compound": "Cc1nn(C)c(C)c1/C=C(/C(=O)C(C)C)n1cncn1", "activity change, negative = inhibition": "inactive: 11.8%"}, {"compound": "Cc1ccc(S(=O)(=O)NCCC(=O)NCC(c2ccc(F)cc2)N2CCOCC2)cc1", "note": "(configuration not stated)", "activity change, negative = inhibition": "inactive: -0.167%"}, {"compound": "O=C(Cc1ccccc1)Nc1ccc(S(=O)(=O)N2CCCC2)cc1", "Potency": "inconclusive: 0.291 µM [inhibitor, single point]"}, {"compound": "CCCCC(=O)NC(=S)NNC(=O)c1ccc(OC)cc1", "Potency": "inconclusive: 32.6 µM [activator, single point]"}, {"compound": "O=c1[nH]snc1N1CCOCC1", "Potency": "inconclusive: 25.9 µM [inhibitor, partial curve, poor fit]"}, {"compound": "CC(=O)Nc1ccc(-c2nnc(SCc3ccc(C)cc3)n2C)cc1", "activity change, negative = inhibition": "inactive: -12.8%"}, {"compound": "Cc1ccc(C2(c3noc(CN(C)CC4CCCCO4)n3)CCCC2)cc1", "note": "(configuration not stated)", "activity change, negative = inhibition": "inactive: -7.66%"}, {"compound": "Cc1cc(C)nc(SCCn2c(N3CC(C)OC(C)C3)nc3c2c(=O)n(C)c(=O)n3C)n1", "note": "(configuration not stated)", "activity change, negative = inhibition": "inactive: -3.9%"}, {"compound": "CN(CC(=O)Nc1ccc(N2CCOCC2)cc1)CC(=O)Nc1ccc(Cl)cc1[N+](=O)[O-]", "Potency": "inconclusive: 29.1 µM [inhibitor, single point]"}, {"compound": "CCOC(=O)c1ccc(NC(=O)CSc2nc(=O)n3cccc(C)c3n2)cc1", "activity change, negative = inhibition": "inactive: -15.8%"}, {"compound": "COc1ccc2cc(CN(CC3CCCO3)C(=S)Nc3ccccc3)c(=O)[nH]c2c1", "note": "(configuration not stated)", "Potency": "active: 8.2 µM"}, {"compound": "CCC1(c2ccccc2)NC(=O)N(CC(=O)NCC2COc3ccccc3O2)C1=O", "note": "(configuration not stated)", "activity change, negative = inhibition": "inactive: 10.3%"}, {"compound": "COc1ccc(NC(=O)CCC(=O)OCc2ccc(Br)cc2)cc1", "activity change, negative = inhibition": "inactive: 7.64%"}, {"compound": "Cc1ccc(C(=O)O/N=C(\\N)c2cccc([N+](=O)[O-])c2)cc1", "Potency": "inconclusive: 18.4 µM [activator, partial curve]"}, {"compound": "O=C(COc1ccc(-c2nnco2)cc1)N1CCOCC1", "activity change, negative = inhibition": "inactive: 8.95%"}, {"compound": "COc1ccc(NC(=O)c2ccc(S(=O)(=O)N(C)C)cc2)cc1OC", "activity change, negative = inhibition": "inactive: 10.5%"}]}]}
